Test results reported in patent publication US6472198B1, “Slow release substrates for driving microbial transformations of environmental contaminants” (The State of Oregon Acting by and through the State Board …, priority 1998, dated 2002).

Assays:
[1] = system: enriched culture from activated aerobic sludge; assay: Aerobic biodegradation microcosms with enriched TBOS utilizing culture; assay type: cell-based; settings: for aerobic biological degradation (in words): enriched culture from activated sludge
[2] = system: microbial culture grown on TBOS; assay: Aerobic cometabolism of TCE by microorganisms grown on TBOS; assay type: cell-based
Procedure: Gas phase TCE and cis-DCE concentrations were measured by injecting 10-100 μL of a gaseous sample into a HP-5890 gas chromatograph connected to a photoionization detector (PID) followed by a flame ionization detector (FID). Chromatographic separation was carried-out with a 30-m megabore GSQ-PLOT column from J&W Scientific (Folsom, Calif.). The GC operating conditions were as follows: injector temperature, 250° C.; detector temperature: 280° C.; the column was initially maintained at 40° C. for 2 minutes and then heated to 220° C. at 15° C./minute.
The microcosms for aerobic cometabolism studies were carried out as described in Example 1 under the heading “Aerobic Biodegradation.” The bacterial culture used was that described in Example 1 under the heading “Enrichment of Aerobic Culture.” cis-DCE and TCE stocks in water were prepared by saturating distilled water with cis-DCE and TCE at 30° C. […]
Microbial culture from the wastewater treatment plant of Corvallis, Oregon grown on TBOS was tested for its ability to cometabolize TCE and cis-DCE. […] Three microcosms and a control were evaluated: a poisoned control (i.e., a killed microcosm) with TBOS and TCE; a biologically active microcosm with TBOS and TCE; and a resting cell microcosm with only TCE; and an acetylene block microcosm with TBOS and TCE (having acetylene in the head space). […]

## CCCCO[Si](OCCCC)(OCCCC)OCCCC [No. 2, Tetrabutoxysilane]
[1]; 100 mg/L TBOS additions, aerobic, enriched culture
  CO2 produced with each addition of TBOS: Approximately 600 μmoles
[1]; aerobic microcosm, enriched culture
  average ratio of CO2 produced per TBOS degraded: 10 moles of CO2 per mole of TBOS
[1]; biologically active culture, aerobic
  time in which three additions of 100 mg/L were utilized: ≤ 30 days
[1]
  aerobic biological degradation (in words): completely mineralized to carbon dioxide
[2]; TBOS 20 mg/L, 12 μmol
  TBOS degradation in TCE microcosm (in words): completely degraded
[2]; acetylene-blocked microcosm
  TBOS degradation in the presence of acetylene (in words): not inhibited

## CCC(CC)CO[Si](OCC(CC)CC)(OCC(CC)CC)OCC(CC)CC [No. 3, Tetrakis(2-ethylbutoxy) silane]
[1]
  aerobic biological degradation (in words): complete biological degradation occurred
